# Source: the supplement of paper PMC12823440, “Inhibitors supercharge kinase turnover through native proteolytic circuits” (Nature, 2025)
# By UniProt entry, the sequences of proteins in these tests, tags left out.
# UniProt Q15118, whole entry, looked up: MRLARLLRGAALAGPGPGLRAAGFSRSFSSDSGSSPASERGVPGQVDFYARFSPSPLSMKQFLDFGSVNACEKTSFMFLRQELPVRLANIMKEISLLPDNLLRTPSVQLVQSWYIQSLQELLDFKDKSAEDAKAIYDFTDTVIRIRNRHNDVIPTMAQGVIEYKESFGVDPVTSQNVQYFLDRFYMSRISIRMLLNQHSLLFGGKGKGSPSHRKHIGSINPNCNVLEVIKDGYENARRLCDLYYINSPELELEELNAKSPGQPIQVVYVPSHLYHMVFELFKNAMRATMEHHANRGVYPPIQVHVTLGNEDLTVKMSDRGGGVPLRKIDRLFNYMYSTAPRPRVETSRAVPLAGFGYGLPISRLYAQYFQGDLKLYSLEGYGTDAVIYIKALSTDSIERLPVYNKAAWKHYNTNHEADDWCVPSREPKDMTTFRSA
# Structures can show the parent of a compound that is named as a salt. This is one part of the list. Hit calls seldom repeat between salt and free forms of one compound.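 Kinases were expressed as nanoluciferase fusions in K562 cells and luminescence was read every 4 h between 2 and 18 h as percent of control, DMSO set to 100% and a positive control to 0%. A time point counts as decreased when the signal drops significantly (2 sigma). The hit call is the authors' own, does not follow from the count of time points alone, and its rule is not shown.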
# Target: PDK1 (UniProt Q15118)
# Assay: number of time points (of 5) at which kinase-Nluc abundance scored as decreased, DMSO-normalised (count); higher = more persistent destabilization
# Conditions: K562; 2-18 h
row,Compound,number of time points
1,C[C@@H](c1ccc2nccn2c1)n1nnc2ncc(-c3cnn(C)c3)nc21 [Savolitinib] (10 µM),0
2,CN1C(=O)C(Cc2c[nH]c3ccccc23)NC1=S (stereo not drawn) [Necrostatin-1] (10 µM),0
3,C[C@@H]1C(=O)O[C@H](C)[C@H]1C[C@@H](O)[C@](C)(O)[C@H]1CC[C@@]2(O)C3=CC(=O)[C@@H]4C[C@@H](O)[C@@H](O)C[C@]4(C)[C@H]3CC[C@]12C [Cyasterone] (10 µM),0
4,CC(c1ccc(-c2cnc3c(-c4ccc(S(N)(=O)=O)c5ccccc45)cnn3c2)cc1)N1CCCC1 (stereo not drawn) (2.5 µM),0
5,CCn1c(=O)c(-c2ccc(-c3cncc(C)n3)cc2Cl)cc2cnc(NCCC3CCN(C)CC3)nc21 (10 µM),0
6,"O=C(O)c1cc(O)ccc1O [2,5-Dihydroxybenzoic acid] (10 µM)",0
7,CC(=NNC(=O)c1ccc(C)c(Br)c1)c1ccc(O)cc1O [mTOR inhibitor-1] (2.5 µM),0
8,Nc1ncnc2c1ncn2[C@@H]1O[C@H](CO)C[C@H]1O [Cordycepin] (10 µM),0
9,C=CC(=O)Nc1cc2c(Nc3ccc(OCc4ccccn4)c(Cl)c3)ncnc2cc1OCCN1CCOCC1 (10 µM),0
10,Cc1ccc(S(=O)(=O)Nc2ccccc2C=Nc2ccccc2NS(=O)(=O)c2ccc(C)cc2)cc1 (10 µM),0
11,CCOc1cc(C(=O)N2CCC(N3CCN(C)CC3)CC2)ccc1Nc1ncc2c(n1)N(C1CCCC1)c1ccccc1C(=O)N2C (10 µM),0
12,Cn1cnc(-c2cc3nccc(Oc4ccc(NC(=S)NC(=O)Cc5ccccc5)cc4F)c3s2)c1 [MGCD-265 analog] (10 µM),0
13,Cn1c(=O)c(F)c(Nc2ccc(I)cc2F)c2c(=O)n(C[C@@H](O)CO)cnc21 (10 µM),0
14,Nc1ncnc2c1c(-c1ccc(Oc3ccccc3)cc1)nn2C1CCNCC1 [N-piperidine Ibrutinib (hydrochloride)] (10 µM),0
15,Cc1csc(-c2nnc(Nc3ccc(Oc4ncccc4-c4ccnc(N)n4)cc3)c3ccccc23)c1 (2.5 µM),0
16,O=C(O)CCc1ccc(O)c(O)c1 [Dihydrocaffeic acid] (10 µM),0
17,COCCOc1cnc(Sc2cc(C)c(-c3csc(NC(=O)c4ccncc4)n3)c(C)c2)cn1 [T-1101 (tosylate)] (2.5 µM),0
18,Cc1cc(NC(=O)c2cccc(NC(=O)/C=C/CN(C)C)c2)ccc1Nc1nccc(-c2cccnc2)n1 (10 µM),0
19,Cc1c(NC(=O)OC[C@@H]2COCCN2)cn2ncnc(Nc3ccc4c(cnn4Cc4cccc(F)c4)c3)c12 (10 µM),0

# Three entries picked at random from those above, as already listed:
row,Compound,number of time points
19,Cc1c(NC(=O)OC[C@@H]2COCCN2)cn2ncnc(Nc3ccc4c(cnn4Cc4cccc(F)c4)c3)c12 (10 µM),0
11,CCOc1cc(C(=O)N2CCC(N3CCN(C)CC3)CC2)ccc1Nc1ncc2c(n1)N(C1CCCC1)c1ccccc1C(=O)N2C (10 µM),0
15,Cc1csc(-c2nnc(Nc3ccc(Oc4ncccc4-c4ccnc(N)n4)cc3)c3ccccc23)c1 (2.5 µM),0

# More structures:

row,Compound,number of time points
1,Cc1ccc(-c2c(C(=O)CF)n(CCCO)c3ncnc(N)c23)cc1 (10 µM),0
2,Cc1ccc(-c2c(C(=O)CCl)n(CCCO)c3ncnc(N)c23)cc1 (10 µM),0
3,COc1cc(F)c(F)c(Nc2ccc(I)cc2F)c1NS(=O)(=O)C1(C[C@H](O)CO)CC1 [Refametinib] (10 µM),0
4,CCN(CC)c1ccc2cc(C(=O)N3CCN(C(=O)C4=Cc5c(Br)cccc5S4(=O)=O)CC3)c(=O)oc2c1 (2 µM),0
5,COc1ccc(C(=C2C(=O)Nc3ccccc32)c2ccc(OC)cc2)cc1 (10 µM),0
6,N#Cc1ccc2ncnc(NC3CCC(N4CCOCC4)CC3)c2c1 (stereo not drawn) (10 µM),0
7,NCCN1CCN(C/C=C/C(=O)N2CCC[C@@H](n3nc(-c4ccc(Oc5ccccc5)cc4)c4c(N)ncnc43)C2)CC1 [Ibrutinib-MPEA] (10 µM),0
8,CN(CC(=O)N(Cc1ccc(C2CCCCC2)cc1)c1ccc(C(=O)O)cc1)S(=O)(=O)c1c(F)c(F)c(F)c(F)c1F (2.5 µM),0
9,CCn1c(C(=O)N(C2CC2)C2CC2)cc2c3c(ncn3C)c(Nc3cc(C)n(C)n3)nc21 (10 µM),0
10,CC(C)CN(CC(=O)N1CCN(CC(OCc2ccc3ccccc3c2)c2ccc(Cl)cc2Cl)CC1)CC(C)C (stereo not drawn) [LYN-1604 (dihydrochloride)] (2.5 µM),0
11,COc1ccc2[nH]cc(/C=C3\C(=O)Nc4ccc(NC(=O)CCN5CCCCC5)cc43)c2c1 (2.5 µM),0
12,CC(C)=CC(=O)CCC(=O)N1CCN(Cc2cc3nc(-c4cccc5[nH]ncc45)nc(N4CCOCC4)c3s2)CC1 (10 µM),0
13,O=C(NCCO)c1ccc2c(c1)nc(Nc1cccc(Cl)c1)c1ccncc12 [CK2 inhibitor 2] (10 µM),0
14,COc1ccc(CC(=O)Nc2nc3c(s2)CCc2ccccc2-3)cc1OC (10 µM),0
15,c1cc2c(cc1O[C@H]1OC[C@H]3[C@@H]1CO[C@@H]3c1ccc3c(c1)OCO3)OCO2 [Sesamolin] (10 µM),0
16,OCCNC1CCCc2c1[nH]c1ccc(-c3ccccc3)cc21 (stereo not drawn) (2.5 µM),0
17,CNc1nc(Nc2cnn(C3CCN(C4COC4)CC3F)c2Cl)ncc1C(F)(F)F (stereo not drawn) (10 µM),0
18,Cc1cc2cc(Nc3ccnc(Nc4ccc5[nH]c(C)cc5c4)n3)ccc2[nH]1 (2.5 µM),0
19,CC(C)(C)NC(=O)c1cncn1C1CCN(c2ccc(-c3nnc(C(F)(F)F)o3)cn2)CC1 (10 µM),0
